Strings that start with PEPTIDE1 are HELM notation: dots part the residues, brackets hold end groups and non-standard residues.
Test: peptide synthesis

Substance	conjugation yield (conjugation step) [%]	final LC-MS purity (conjugation step, LC-MS (stated for geo75))	step yield (late stage modification step) [%]
PEPTIDE1{R.G.D.[dY].K}|CHEM1{[JH139-CONH-EDEA-NHCO]}$PEPTIDE1,PEPTIDE1,1:R1-5:R2|PEPTIDE1,CHEM1,5:R3-1:R2$$$V2.0	88	–	–
PEPTIDE1{R.G.D.[dY].K}|CHEM1{[JH139-COO-TEG-OCO]}$PEPTIDE1,PEPTIDE1,1:R1-5:R2|PEPTIDE1,CHEM1,5:R3-1:R2$$$V2.0	56	greater than 98%	–
PEPTIDE1{R.G.D.[dY].K}|CHEM1{[JH139-glutaryl]}$PEPTIDE1,PEPTIDE1,1:R1-5:R2|PEPTIDE1,CHEM1,5:R3-1:R2$$$V2.0	45	–	–
PEPTIDE1{R.G.D.[dY].K}|PEPTIDE2{[JH139-CONH-EDEA-NHCO].K}$PEPTIDE1,PEPTIDE1,1:R1-5:R2|PEPTIDE1,PEPTIDE2,5:R3-2:R2$$$V2.0	–	–	90

From publication PMC9962512 (Pharmaceutics, 2023)
